Laboratory results published in patent publication US8933039B2 (NPS Pharmaceuticals, Inc., priority 1995, dated 2015).
Part of at least one peptide drawing is inferred or uncertain, most often the ends. No end group written: not given here.

Test system: CD1 mice
Assay: Intestinotrophic activity assessment: small bowel weight in mice
Format: in vivo
Details: as Example 4
Method: Recipients were CD1 mice obtained from Charles River Laboratory (Ontario, Canada). The CD1 mice were aged-matched females at time of injection (n=3-4 per group), 6 weeks of age, unless otherwise specified. The animals were allowed a minimum of 24 hours to acclimatize to the laboratory facility before the initiation of each experiment. Animals were identified by ear punch. The mice were not restricted by diet or activity during the experiments. The light/dark cycle was 12 hours, between 6 pm to 6 am. Controls were age- and sex-matched (n=3-4) animals. Mice were injected subcutaneously, twice a day (b.i.d.), with 2.5 μg peptide in a total volume of 0.5 cc of PBS and were monitored daily in the laboratory facility. Animals were sacrificed 10 or 14 days after injection, and were fasted at least 20 hours before sacrifice. […]
Percentage change in small bowel weight was calculated by dividing the mean change in bowel weight of analog treated mice, relative to mice treated with vehicle only, by the mean bowel weight of mice treated with vehicle only, and multiplying this figure by 100.
Experiments assessing the small bowel inducing activity of various analogs was repeated as described above for Example 4. In these experiments, the small bowel inducing activity of each analog in mice was calculated relative to that of native rat GLP-2(1-33) (expressed as 100% of activity). […]

| Sequence | % Activity (small bowel inducing activity relative to native rat GLP-2(1-33) = 100%) [%] |
| --- | --- |
| HSQGSFSDEMNTILDNLAARDFINWLIQTKITD [[Ser2,Gln3]hGLP-2(1-33)] | 11 |
| RRADGSFSDEMNTILDNLATRDFINWLIQTKITD [[Arg-2,Arg-1]ratGLP-2(2-33)] | 43 |
